At least one structure is not confirmed: it was looked up by name or label, or the drawing left a doubt.
Legend:
[1] = Solid stability test of the crystal form A of compound 1; type: physicochemical
From the text: Samples placed under high temperature and high humidity conditions were sealed with aluminum foil paper and small holes were punched in the aluminum foil paper to ensure that the sample could fully contact with ambient air; samples placed under strong light conditions were sealed with threaded caps. The samples placed under different conditions were sampled and tested on the 5th day and 10th day (XRPD and HPLC), and the test results were compared with the initial test results obtained on day 0.

OAT-4 = target: T1, OAT-4 (Homo sapiens, UniProt Q9NSA0); assay: Inhibition of substrate uptake in MDCK cells overexpressing OAT-4; type: cell-based; conditions: comparison of IC50 values
T1 construct: expressed in transfected cells; host or cells: MDCK (canine kidney) cells; the empty-vector control is pcDNA3.1
T1 sequence (Q9NSA0 1-550): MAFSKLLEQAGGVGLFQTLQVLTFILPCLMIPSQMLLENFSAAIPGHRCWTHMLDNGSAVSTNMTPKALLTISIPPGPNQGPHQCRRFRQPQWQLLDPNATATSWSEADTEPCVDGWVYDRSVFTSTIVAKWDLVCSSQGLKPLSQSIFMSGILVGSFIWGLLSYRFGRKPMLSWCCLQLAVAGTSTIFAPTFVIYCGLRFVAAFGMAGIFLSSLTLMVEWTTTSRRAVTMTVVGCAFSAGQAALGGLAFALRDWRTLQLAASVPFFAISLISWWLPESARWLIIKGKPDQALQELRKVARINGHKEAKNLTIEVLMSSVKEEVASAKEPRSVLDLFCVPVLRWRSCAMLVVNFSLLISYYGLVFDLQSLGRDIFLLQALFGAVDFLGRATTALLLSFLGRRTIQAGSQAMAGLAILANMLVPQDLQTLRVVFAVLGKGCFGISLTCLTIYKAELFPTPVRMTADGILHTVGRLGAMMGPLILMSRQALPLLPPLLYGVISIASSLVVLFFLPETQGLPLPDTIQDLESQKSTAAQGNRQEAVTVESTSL

SMILES: O=C(O)CSc1nnc(Br)n1-c1c(Cl)cc(C2CC2)c2ccccc12 [Compound 1]
- Crystal form ([1]; Day 0 (initial)): Crystal form A
- Crystal form ([1]; High humidity (room temperature/relative humidity 92.5%, open), 5th day): Crystal form A
- Crystal form ([1]; High humidity (room temperature/relative humidity 92.5%, open), 10th day): Crystal form A
- Crystal form ([1]; High temperature (60° C., open), 5th day): Crystal form A
- Crystal form ([1]; High temperature (60° C., open), 10th day): Crystal form A
- Crystal form ([1]; Strong light (5000 lx, closed), 10th day): Crystal form A
- Inhibition on OAT-4 mediated estrone sulfate ammonium salt transport compared with URAT-1 mediated uric acid transport (OAT-4): 0.6 times
- Inhibition on OAT-4 mediated uric acid transport compared with URAT-1 mediated uric acid transport (OAT-4): 1 times

Reference: patent publication US11352331B2, “Crystal and salt of 4-(naphthalen-1-yl)-4H-1,2,4-triazole compound and preparation method therefor” (MEDSHINE DISCOVERY INC., priority 2017, dated 2022)
